# PubChem BioAssay AID1224830 – NIAID, 2016
# Aim: 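Regulators of TLR4 signalling towards TNF-alpha in macrophage-like cells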 (primary screen)
# Cells: human THP-1 monocytic leukaemia cells, TNF dual-luciferase reporter clone, PMA-differentiated to macrophage-like cells
# Reagents: siRNA pool against human genes, 50 nM
# Duration: LPS for 4 h, given about 3 days after siRNA transfection
# Treatment: bacterial LPS (TLR4 ligand), 10 ng/ml
# Read-out: 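TNF firefly reporter luminescence divided by renilla, normalised to the plate median, then turned into a robust z-score for each replicate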
# Direction: TNF reporter robust z-score: higher = stronger TNF reporter response to LPS
# Rule for the call: 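Each well counts as active if its z-score is over 2.8 or under -1.5; controls are left without a call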
# This is a random part of about 18,000 deposited reagents. Of all reagents, about 2,900 (16%) are marked active. 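Calls are made per well; low scores hint the gene aids the LPS response, high scores that it dampens it.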 Entries without a mark were called inactive. Repeated entries: four replicate wells of each siRNA pool.
gene knocked down,TNF reporter robust z-score
SND1,-0.23
SND1,0.1
SND1,0.01
NCAM2,1
NCAM2,-0.84
NCAM2,0.32
NCAM2,0.93
ZKSCAN8,-0.12
ZKSCAN8,0.13
ZKSCAN8,-0.04
ZKSCAN8,-0.28
OR2M4,-0.94
OR2M4,-0.42
OR2M4,-0.85
OR2M4,-1.15
LAIR2,2.39
LAIR2,1.89
LAIR2,0.34
LAIR2,2.13
RABGEF1,-1.14
RABGEF1,-0.87
RABGEF1,-1.05
RABGEF1,-0.53
ODC1,0.37
ODC1,0.3
ODC1,0.78
ODC1,1.53
ZNF407,-0.12
ZNF407,0.25
ZNF407,-0.53
ZNF407,0.53

Next part, starting with the last 4 of the part before.
gene knocked down,TNF reporter robust z-score
ZNF407,-0.12
ZNF407,0.25
ZNF407,-0.53
ZNF407,0.53
CNOT6,0.17
CNOT6,2.7
CNOT6,2.38
CNOT6,2.07
JUNB,0.9
JUNB,3.59 (active)
JUNB,1.46
JUNB,3.3 (active)
FNDC1,1.09
FNDC1,2.29
FNDC1,2.2
FNDC1,2.43
SLC25A16,0.36
SLC25A16,1.05
SLC25A16,0.53
SLC25A16,0.59
